# Screening data, single-dose tests

Protein sequences, listed by entry. Tags and fused reporters are not part of them.
UniProt P9WNZ1, whole entry: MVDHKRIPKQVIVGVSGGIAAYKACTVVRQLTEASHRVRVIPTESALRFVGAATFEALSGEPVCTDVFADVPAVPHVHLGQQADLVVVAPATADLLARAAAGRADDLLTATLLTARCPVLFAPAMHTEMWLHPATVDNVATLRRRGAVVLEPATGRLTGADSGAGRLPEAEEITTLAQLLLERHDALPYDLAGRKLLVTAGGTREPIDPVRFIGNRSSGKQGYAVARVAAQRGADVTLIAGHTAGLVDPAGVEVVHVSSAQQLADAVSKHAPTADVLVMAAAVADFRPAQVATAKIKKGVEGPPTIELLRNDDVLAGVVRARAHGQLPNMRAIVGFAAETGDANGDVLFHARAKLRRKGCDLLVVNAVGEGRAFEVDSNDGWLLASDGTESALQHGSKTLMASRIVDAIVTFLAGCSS

Source: ChEMBL document CHEMBL3988442, “University of Dundee, Small-Polar-MMV Screening Library” (2021).

A: 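Enzyme assay of CoaBC with a phosphate dye (Biomol Green) read at 650 nm. Target: Coenzyme A biosynthesis protein CoaBC, Mycobacterium tuberculosis (UniProt P9WNZ1). Concentration: 30 µM. Higher reads as stronger inhibition, judged from the few compounds that gave an IC50. Most strong results did not repeat in a second test. About 67,000 compounds were tested under these conditions; 0.06% (about 40) showed 50% or more at least once.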
B: 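Cell assay of Leishmania donovani living inside macrophages; the read-out is not stated. Compounds at 30 µM. Direction is inferred from retests: higher values go with stronger inhibition. About 69,000 compounds were tested under these conditions; 1.5% (about 1,000) showed 50% or more at least once.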

Each number is a percent effect as filed.
The record does not define 0% and 100%; most values in the screen are far below 50% and negative numbers occur (in some assays of this library far below -100).
Compounds were drawn at random from those tested, without regard to their results.
A dash means the value is not listed here; it may have been measured.

* CCOCCn1nc(C)cc1C(=O)N1C[C@@H](C)[C@](O)(C2CC2)C1 : A: 0.6031%; B: 38.46%
* Cc1ccc(N2CCC3(CC2)CCN(C2CCOC2)CC3)nn1 (centres unmarked) : A: -5%
* [H][C@@]12CCCN1C[C@@H](CCSC)N(Cc1cn(CC)nc1C)C2 : B: 14.02%
* CN1CCC(Cc2cc(Nc3ncccn3)ncn2)CC1 : A: 3.611%; B: 11.53%
* Cc1csc(NC(=O)CN(C)CC2CCCN2c2cccnn2)n1 (centres unmarked) : A: 6.418%; B: 34.96%
* O=C(NCc1ccccn1)c1cnc(C2CCCN2)cn1 (centres unmarked) : A: 9.091%; B: -4.156%
* CN(Cc1cccnc1)C1CC2(CCN(c3ncc(F)cn3)CC2)C1 : A: -11.61%
* Cc1cccc(C)c1Nc1noc2c1CN(C(=O)c1cn(C)cn1)CC2 : A: 5.085%; B: 6.911%
* CC(C)CC(=O)N1CCCCC(NC(=O)CCc2cccnc2)C1 (centres unmarked) : A: 3.708%; B: 28.52%
* CCC1CN(CC(=O)N2CCCC2)CCN1CCOC (centres unmarked) : A: 5.342%; B: 10.29%
* CCOCc1nn(CC2CC2)c2c1CN(Cc1ccco1)CC2.O=C(O)C(F)(F)F : B: 7.759%
* CC(C)(O)CCc1cccc(C(=O)N2CCC[C@H]2C(N)=O)c1 : A: 6.397%; B: -24.45%
* O=C(CCN1CCSCC1c1ccccc1)N1CCOCC1 (centres unmarked) : A: 8.765%; B: 6.371%
* Cn1cc(C2CC(=O)NC23CCN(Cc2ccncc2)CC3)cn1 (centres unmarked) : A: -3.329%
* O=C(CCc1ccsc1)N1CCCC(n2cncn2)C1 (centres unmarked) : A: 14.04%; B: 18.97%
* CCN1CCCC12CCN(C(=O)c1ccsc1)CC2.O=C(O)C(F)(F)F : B: 19.09%
* CC(NCc1ccccc1O)c1ccc(-n2ccnc2)cc1 (centres unmarked) : A: 4.715%; B: -59.04%
* CCOC1COC2(CCN(Cc3cccc(C)n3)CC2)C1.O=C(O)C(F)(F)F (centres unmarked) : B: 13.54%
* CCN(CC)S(=O)(=O)c1ccc2c(c1)N(Cc1ccncc1)C(=O)CS2 : A: 1.449%; B: -2.154%
* Cc1ocnc1C(=O)N1CCN(Cc2ccccc2)[C@@H]2CS(=O)(=O)C[C@@H]21 : A: 1.463%
* O=C(Cc1noc2ccccc12)N1CCC(Nc2cccnn2)CC1 : A: -3.609%; B: 14.64%
* CSc1ccc(CNC2CCN(CCc3ccncc3)CC2)cc1 : A: -24.4%; B: 85.89%
* Cl.[H][C@@]12CN(C3CCCC3)CC[C@]1([H])N(C(=O)C1CCCC1)C[C@H]2c1ccsc1 : B: -10.59%
* CCc1nc(C)c([C@H]2CN(C)C[C@@H]2C(=O)Nc2ccc(OC)nc2)[nH]1 : A: 6.903%; B: 7.356%
* O[C@@H]1CN(c2nc3ccccc3s2)CC[C@H]1c1ccc2c(c1)OCO2 : A: 4.793%; B: -23.8%
* CC(C)NC(=O)N1CCC2(CC1)CCn1c(C3CC3)cnc12 : B: -4.143%
* O=C(O)C(F)(F)F.[H][C@]12CCN(CCOC)[C@@]1([H])CC[C@H](COCC(=O)N1CCCC1)O2 : B: 27.81%
* CCNc1cc2c(nn1)CCN(C(=O)c1cc3ccccc3o1)C2 : A: 1.567%; B: 9.316%
* Cc1nc(CN2CCCCC2Cn2cccn2)nc2ccccc12 (centres unmarked) : A: 0.7299%; B: 24.15%
* Cc1cnc(CN(C)CC2CCCN2c2cccnn2)cn1 (centres unmarked) : A: -12.31%; B: 29.5%
* CC(=O)N1CCCC(c2ccc(CO)c(-c3c(C)noc3C)n2)C1 (centres unmarked) : A: -0.2283%; B: -12.3%

2 of the entries, repeated:

compound	A	B
Cl.[H][C@@]12CN(C3CCCC3)CC[C@]1([H])N(C(=O)C1CCCC1)C[C@H]2c1ccsc1	-	-10.59
CC(=O)N1CCCC(c2ccc(CO)c(-c3c(C)noc3C)n2)C1 (centres unmarked)	-0.2283	-12.3